Measured data: PubChem BioAssay AID1259424 (University of Nebraska Medical Center, 2018)
In all, the deposit lists about 14,000 reagents; below is a part drawn at random. 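Higher correlation or smaller distance means closer resemblance to KSR1 loss; control wells, including KSR1 knockdowns, recur on many plates.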 Not stated in the record: the time to read-out.

- Assay: 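Seek colon cancer survival genes behaving like KSR1, using a six-gene signature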 (primary screen)
- System: human HCT116 colon cancer cells
- Reagents: siRNA pool against human genes, 50 nM
- Measurement: 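Log2 levels of six mRNAs (branched-DNA multiplex), adjusted by two reference genes and the non-targeting median, then scored against the average KSR1 knockdown pattern as Pearson r and euclidean distance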
- Direction: mean correlation with KSR1 profile and KSR1 correlation: higher = expression change more like KSR1 knockdown; mean distance from KSR1 profile: higher = expression change less like KSR1 knockdown

The first 6 entries, to show the layout:
no.	target	mean correlation with KSR1 profile	mean distance from KSR1 profile	KSR1 correlation, replicate 1	KSR1 correlation, replicate 2	KSR1 correlation, replicate 3
1	CYSLTR1 (cysteinyl leukotriene receptor 1)	0.447	2.16	0.294	0.57	0.152
2	UGT1A7 (UDP glucuronosyltransferase family 1 member A7)	-0.077	1.97	-0.0852	0.295	-0.211
3	GNPTG (N-acetylglucosamine-1-phosphate transferase subunit gamma)	-0.0519	2.43	0.0779	-0.174	-0.436
4	ADAMTS13 (ADAM metallopeptidase with thrombospondin type 1 motif 13)	-0.3	1.19	-0.299	-0.0288	-0.244
5	GCA (grancalcin)	0.00582	2.17	0.157	-0.125	-0.0088
6	EYA2 (EYA transcriptional coactivator and phosphatase 2)	-0.382	2.04	-0.48	-0.155	-0.446

Results, repeating the preview:
no.	target	mean correlation with KSR1 profile	mean distance from KSR1 profile	KSR1 correlation, replicate 1	KSR1 correlation, replicate 2	KSR1 correlation, replicate 3
1	CYSLTR1 (cysteinyl leukotriene receptor 1)	0.447	2.16	0.294	0.57	0.152
2	UGT1A7 (UDP glucuronosyltransferase family 1 member A7)	-0.077	1.97	-0.0852	0.295	-0.211
3	GNPTG (N-acetylglucosamine-1-phosphate transferase subunit gamma)	-0.0519	2.43	0.0779	-0.174	-0.436
4	ADAMTS13 (ADAM metallopeptidase with thrombospondin type 1 motif 13)	-0.3	1.19	-0.299	-0.0288	-0.244
5	GCA (grancalcin)	0.00582	2.17	0.157	-0.125	-0.0088
6	EYA2 (EYA transcriptional coactivator and phosphatase 2)	-0.382	2.04	-0.48	-0.155	-0.446
7	NFKBIZ (NFKB inhibitor zeta)	0.245	2.15	0.597	0.27	0.0328
8	VEGFC (vascular endothelial growth factor C)	-0.152	2.48	0.0802	-0.359	-0.243
9	PLD1 (phospholipase D1)	0.0373	1.76	-0.000302	0.0377	-0.0357
10	CD151 (CD151 molecule (Raph blood group))	-0.0261	2.9	0.16	-0.0301	0.441
11	GTF3C3 (general transcription factor IIIC subunit 3)	0.196	2.03	0.116	-0.206	0.32
12	TCTN2 (tectonic family member 2)	0.512	1.49	0.76	0.639	0.108
13	PCDHGA2 (protocadherin gamma subfamily A, 2)	-0.00306	1.21	-0.473	-0.0436	0.0486
14	CHD4 (chromodomain helicase DNA binding protein 4)	-0.438	3.52	-0.504	-0.342	-0.573
15	NPAS2 (neuronal PAS domain protein 2)	-0.529	2.1	-0.648	-0.659	-0.484
16	ZNF138 (zinc finger protein 138)	-0.091	1.45	-0.118	-0.191	0.0514
17	HMGB3 (high mobility group box 3)	-0.509	1.97	-0.523	-0.0772	-0.649
18	UGT2B4 (UDP glucuronosyltransferase family 2 member B4)	0.392	0.91	0.609	-0.195	0.329
19	SPARC (secreted protein acidic and cysteine rich)	0.822	0.796	0.594	0.789	0.839
20	PRPH (peripherin)	-0.236	1.8	0.121	0.282	-0.49
21	TGFBRAP1	-0.219	1.75	-0.155	-0.233	-0.316
22	LRRC17 (leucine rich repeat containing 17)	-0.322	1.84	-0.631	-0.301	-0.183
23	UBXN4 (UBX domain protein 4)	-0.146	1.37	-0.187	-0.199	-0.0177
24	TAF13 (TATA-box binding protein associated factor 13)	-0.227	3.73	-0.358	-0.202	-0.101
25	GTF2IRD1 (GTF2I repeat domain containing 1)	0.015	1.8	0.127	-0.138	-0.0799
26	NONO (non-POU domain containing octamer binding)	0.797	2.08	0.774	0.814	0.688
27	FLNC (filamin C)	0.107	1.36	0.215	-0.257	0.128
28	INTS3 (integrator complex subunit 3)	-0.794	5.53	-0.401	-0.692	0.619
29	ATP2B4 (ATPase plasma membrane Ca2+ transporting 4)	0.152	1.47	0.423	0.00635	-0.24
30	ERLIN1 (ER lipid raft associated 1)	0.759	1.01	0.777	0.506	0.841
31	RPP30 (ribonuclease P/MRP subunit p30)	0.677	1.44	0.612	0.717	0.407
32	PSG9 (pregnancy specific beta-1-glycoprotein 9)	0.722	1.67	0.683	0.41	0.755
33	CRMP1 (collapsin response mediator protein 1)	-0.503	2.64	-0.566	-0.107	-0.408
34	PYCR2 (pyrroline-5-carboxylate reductase 2)	0.0299	2	0.00746	0.00848	-0.0317
35	SLC27A6	0.199	1.92	-0.18	0.089	-0.153
36	MTOR (mechanistic target of rapamycin kinase)	0.645	2.04	0.788	0.451	0.359
37	CCN1 (cellular communication network factor 1)	-0.788	3.97	-0.727	-0.725	-0.689
38	HRAS (HRas proto-oncogene, GTPase)	0.219	1.14	0.365	0.0639	0.00932
39	COPE (coat protein complex I subunit epsilon)	0.386	1.79	0.502	0.365	0.195
40	FBXO32 (F-box protein 32)	0.423	1.61	0.414	0.339	0.242
41	ZFYVE1 (zinc finger FYVE-type containing 1)	-0.421	1.29	-0.133	-0.414	-0.137
42	FRMD4A (FERM domain containing 4A)	-0.0744	2.33	-0.137	0.229	-0.198
43	ELL (elongation factor for RNA polymerase II)	-0.251	2.67	-0.187	-0.399	-0.167
44	KCNV2	-0.201	1.29	0.182	-0.209	-0.29
45	NEO1 (neogenin 1)	0.527	2.3	0.372	0.299	0.491
46	SPHK1 (sphingosine kinase 1)	0.479	1.26	0.703	-0.403	0.301
47	PGA5 (pepsinogen A5)	0.0577	1.66	0.247	0.241	-0.104
48	EIF2AK2 (eukaryotic translation initiation factor 2 alpha kinase 2)	0.223	2.02	0.252	0.336	0.194
49	MRPL43 (mitochondrial ribosomal protein L43)	0.528	1.48	0.662	0.531	0.0693
50	GPR12 (G protein-coupled receptor 12)	0.322	1.94	0.303	0.477	0.128
